Earlier results in patent US10995093B2, “Synthesis of 2′-fluoro-6′-methylene-carbocyclic adenosine (FMCA) and 2′-fluoro-6′methylene-carbocyclic guanosine (FMCG)” (UNIVERSITY OF GEORGIA RESEARCH FOUNDATION, INC., priority 2016, dated 2021).
At least one structure is not confirmed: it was looked up by name or label, or the drawing left a doubt.

System: lamivudine/entecavir-resistant clone (L180M+M204V+S202G)
Conditions: triple mutant core (L180M+M204V+S202G) of entecavir/lamivudine-resistant

C=C1[C@@H](n2cnc3c(N)ncnc32)C(F)[C@@H](O)[C@H]1COP(=O)(N[C@H](C)C(=O)OC(C)C)Oc1ccccc1 (stereo partly drawn) [FMCAP, {[(1R,3R,4R)-3-(6-amino-9H-purin-9-yl)-4-fluoro-5-hydroxy-2-methylenecyclopentyl)methoxyl](phenoxyphosphorylamino} propionic Acid Isopropyl Ester]
increase in anti-HBV activity of the monophosphate prodrug relative to FMCA: 12 fold
